This is an account of results in the RNAGym collection of RNA variant scans (doi:10.1126/science.aae0568).

B1: tRNA (parent)
chain: GUUCCGUUGGCGUAAUGGUAACGCGUCUCCCUCCUAAGGAGAAGACUGCGGGUUCGAGUCCCGUACGGAACG

Variants at the background level are over-represented here.

The variants in this series derive from B1. Put plainly: yeast fitness relative to wild type (ratio to wild type); higher = fitter; tRNA-Arg(CCU), competitive growth, 37 C, YPD. Summed up:
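Amplicons of the tRNA-Arg(CCU) gene were sequenced, 100-nucleotide paired-end, from the start population and from each end population of a pooled yeast competition. The competition, in six parallel replicates, lasted 24 hours in YPD at 37°C. Fitness relative to wild type was calculated from changes in genotype frequencies. Genotypes had to have ≥ 100 starting reads, and estimates < 0.5 were set to 0.5.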
With U16A A20U G50A C66G, the yeast fitness was not above 0.5.

C11G C27U A36U G48C C49U: the yeast fitness was determined as 0.717.

C24U C29G G48A A69U: the yeast fitness is not above 0.5.

On to U2C U7A A65U, for which the yeast fitness stood at 0.725.

U26A C29A C31G C61U: the yeast fitness was not above 0.5.

For C22G C29G G44C G56A A57G A70U, the yeast fitness was not above 0.5.

Consider A15G A21U C34G C49G C61U A69G, for which the yeast fitness was not above 0.5.

For the variant U7G C27A A36C A42U U64G, the yeast fitness is 0.528.

Take C4U U32C A36G G44C: the yeast fitness was not above 0.5.

Turning to U2C C11U U32A A37C C55G, the yeast fitness was not above 0.5.

On to C46U C61A G67A, for which the yeast fitness turned out to be 0.568.

With U8C G18C U32G G58A, the yeast fitness was not above 0.5.

As for G9A U16C U19C C30U G41A U47C, the yeast fitness was not above 0.5.

On to G10C A14U C22A A36G, for which the yeast fitness was not above 0.5.

Turning to G23C G58U, the yeast fitness is 0.565.

In the case of U7A C22A A57C, the yeast fitness is not above 0.5.

For C31U A42C, the yeast fitness came out at 1.17.

As to C5U C31G C33G C34U C49U G68A, the yeast fitness is 0.543.

Regarding U3A U35C A37C A45C, the yeast fitness is not above 0.5.

For the variant C27G A57G C60A C66G, the yeast fitness is not above 0.5.

Consider A15C U59A C62A, for which the yeast fitness was not above 0.5.

With U7G C30A C62A, the yeast fitness is not above 0.5.

For G12C C46A A70G, the yeast fitness was not above 0.5.

For U8G U35A G41A C66U, the yeast fitness was not above 0.5.

On to C4U C11A C29A U54A A57U, for which the yeast fitness is not above 0.5.

On to C49G G50C C62U, for which the yeast fitness is 0.539.

With U28A C34G C49G G68C, the yeast fitness was not above 0.5.

As to U7C G48C C62U, the yeast fitness was 0.548.

Take G18C G38A A43U A45G A57G U59C: the yeast fitness is not above 0.5.

On to G9C A15G U26C U28C, for which the yeast fitness is not above 0.5.

With C5U C11U C62U G68A, the yeast fitness was not above 0.5.

Consider G12A A20U C62U A65G, for which the yeast fitness was not above 0.5.

Consider C31U G38C G51C C55U, for which the yeast fitness was not above 0.5.

As for A42G G51A, the yeast fitness came out at 0.822.

As for U47C A65U C66A A69C, the yeast fitness is not above 0.5.

With G10A C29A C34G A43C C60G C66U, the yeast fitness is not above 0.5.

For the variant G6C U13C G50A, the yeast fitness was not above 0.5.

U26C G58A: the yeast fitness was determined as 1.

As for A21C C24G U32A A42C, the yeast fitness was not above 0.5.

Regarding C11U G18A C22U A36U, the yeast fitness was not above 0.5.

Take C5A C24U U64C: the yeast fitness amounted to 0.639.

As for C33A C60A U64C, the yeast fitness was not above 0.5.

With C11A A21G C34U A37G A42C, the yeast fitness was not above 0.5.

G6C G38C U59C: the yeast fitness was not above 0.5.

As for U32A A57C G63C, the yeast fitness is not above 0.5.

With G18A A21U U26C G48A, the yeast fitness was not above 0.5.

Turning to C11U G17C C24G C29G C66U, the yeast fitness is not above 0.5.

G12A C30G A37U G52C: the yeast fitness was not above 0.5.

Take C30U C46A C66U: the yeast fitness was determined as 0.83.

As to G17C G23A G25C C29G A36U G39A C46U C55U, the yeast fitness is not above 0.5.

Consider C11A C27U G44U, for which the yeast fitness was not above 0.5.

Take C31U G56A G63C: the yeast fitness was not above 0.5.

Consider G18C C24U G51A A57U, for which the yeast fitness was not above 0.5.

Regarding G10C U13A C55U C61U, the yeast fitness is not above 0.5.

Regarding U13C U16A U19A C31A G39C, the yeast fitness was not above 0.5.

With C4G U8G C27G G56A, the yeast fitness is not above 0.5.

On to G25A A37C C46U A57U, for which the yeast fitness is not above 0.5.

In the case of U7C A21C C34G U35G G44C G50C G63A, the yeast fitness is not above 0.5.

For the variant C4U C24U A36C C61G, the yeast fitness was not above 0.5.

On to U2G A14C A57U, for which the yeast fitness is not above 0.5.

As for C46A G58C C62A A70C, the yeast fitness was not above 0.5.

On to C5G A20G C34A A40G G44A C46G, for which the yeast fitness is not above 0.5.

For G25C C31G, the yeast fitness worked out at 0.704.

Consider C4G C33G A43C, for which the yeast fitness was not above 0.5.

With G6A U16C G25C C27G C30G G38C, the yeast fitness is not above 0.5.

For the variant C11A U19G, the yeast fitness came to 0.669.

As to G6A U19C C61G G63C A70G, the yeast fitness is not above 0.5.

Regarding A15C G17A G18A A36C C55U G63A C66A, the yeast fitness was not above 0.5.

For A20G C29G A40U, the yeast fitness was not above 0.5.

With G6A C24U U26G C34A C46G G56A A65C, the yeast fitness is not above 0.5.

U13C A21G A36U A57G: the yeast fitness is not above 0.5.

On to C11U C46G G51A, for which the yeast fitness worked out at 0.571.

As to G6A A37G G41A G52A, the yeast fitness is not above 0.5.

On to G10C U16C A20G U54C C55U, for which the yeast fitness is not above 0.5.

For C5A G9C C46U C61G C66U A69U, the yeast fitness is not above 0.5.

In the case of C11A G12A C66U, the yeast fitness is not above 0.5.

For the variant C5U U13C U19A A21U C24A U54C U59C A69G, the yeast fitness was determined as 0.524.

For the variant C4G A21C U35C A69C, the yeast fitness was not above 0.5.

In the case of A20C A45G A65U C66G, the yeast fitness is not above 0.5.

Take C5A A15U G41C: the yeast fitness was not above 0.5.

Turning to A15G C27G A42G G48A, the yeast fitness is not above 0.5.

Take G9C C33A U59G: the yeast fitness is not above 0.5.

As for U32A A70C, the yeast fitness was found to be 0.741.
